Measured values published in patent US20150368248A1, “2-SUBSTITUTED-6-BIARYLMETHYLAMINO-9-CYCLOPENTYL-9H-PURINE DERIVATIVES, USE THEREOF AS MEDICAMENTS, AND PHARMACEUTICAL COMPOSITIONS” (UNIVERZITA PALACKEHO V OLOMOUCI, priority 2013, published 2015).

Experiments:
Test in all cases: MTT cytotoxicity assay (Example 30)
Assay type in all cases: cell-based
HCC-1.1 (3sp) = conditions: Homo sapiens, 72 h, three days after drug addition, read-out: Inhibitory concentration IC50, 3sp
Protocol: (§1) Cytotoxicity of the compounds is the major property determining their anticancer effect in vivo. One of the parameters used, as the basis for cytotoxicity assays, is the metabolic activity of viable cells.
(§2) We have been using the following cell lines: HUH-7 and PLC/PRF/5 cell lines were maintained in DMEM supplemented with 10% fetal bovine serum, penicillin (100 U/ml) and streptomycin (100 μg/ml). […] HepG2 cell line was maintained in EMEM supplemented with 10% fetal bovine serum, sodium pyruvate (0.11 g/1), penicillin (100 U/ml) and streptomycin (100 μg/ml). All cell lines were cultivated at 37° C. in 5% CO2. For cytotoxicity assays, 3000 cells (10000 cells in case of HepG2 cell line) were seeded into each well of 96 well plate and the next day tested compounds were added at various concentrations in triplicates. Three days after drug addition MTT stock solution (5 mg/ml) was added into each well and incubated for 4 h. After this incubation period, produced formazan was dissolved by DMSO and final absorbance was measured at 570 nm with Synergy H4 Hybrid Multi-Mode Microplate Reader.

HCC-1.2 (3p) = conditions: Homo sapiens, HCC-1.2, 72 h, three days after drug addition, read-out: Inhibitory concentration IC50, 3p
Protocol: as §1, §2

HUH-7 = conditions: Homo sapiens, Huh-7, 72 h, three days after drug addition, read-out: Inhibitory concentration IC50, HUH-7
Protocol: as §1, §2

Hep3B = conditions: Homo sapiens, 72 h, three days after drug addition, read-out: Inhibitory concentration IC50, Hep3B
Protocol: as §1, §2

PLC/PRF/5 = conditions: Homo sapiens, PLC-PRF-5, 72 h, three days after drug addition, read-out: Inhibitory concentration IC50, PLC/PRF/5
Protocol: as §1, §2

Measured: IC50

CC[C@H](CO)Nc1nc(NCc2ccccc2)c2ncn(C(C)C)c2n1 [roscovitine, reference compound]
> 10 µM: all assays above
